Experiment [1] has as its target H8-MBP-Rho (4M), purified (human) (UniProt P08100). Briefly: AlphaScreen or HTRF; biotinylated WT arrestin and His8-tagged 4M Rho, without GRK1 or with GRK1 but without ATP; both purified. For orientation: Alpha assays give light when donor and acceptor beads are brought close together.
Experiment [2] has as its target parathyroid hormone receptor (PTH1R) fused to a TEV cleavage site and tTA (human) (UniProt Q03431). Briefly: Tango assay (TEV protease proximity reporter); HTL cells co-transfected with receptor-TEV cleavage site-tTA and GRK-TEV protease fusions; luciferase reporter; vehicle or ligand overnight (ATR 10 μM for rhodopsin; paroxetine; DHE 0.1 μM, GR 127935 1 μM; SX 1 μM, ICI 118 551 1 μM); DNA amounts adjusted for similar expression. For orientation: A reporter such as luciferase makes a cellular process visible.

The chains behind the UniProt entries cited, without tags or fusion partners. Where a name states a change or a piece, a line headed by the entry shows the natural chain unless it says otherwise. Residues count along the entry.
UniProt Q03431, residues 27-593: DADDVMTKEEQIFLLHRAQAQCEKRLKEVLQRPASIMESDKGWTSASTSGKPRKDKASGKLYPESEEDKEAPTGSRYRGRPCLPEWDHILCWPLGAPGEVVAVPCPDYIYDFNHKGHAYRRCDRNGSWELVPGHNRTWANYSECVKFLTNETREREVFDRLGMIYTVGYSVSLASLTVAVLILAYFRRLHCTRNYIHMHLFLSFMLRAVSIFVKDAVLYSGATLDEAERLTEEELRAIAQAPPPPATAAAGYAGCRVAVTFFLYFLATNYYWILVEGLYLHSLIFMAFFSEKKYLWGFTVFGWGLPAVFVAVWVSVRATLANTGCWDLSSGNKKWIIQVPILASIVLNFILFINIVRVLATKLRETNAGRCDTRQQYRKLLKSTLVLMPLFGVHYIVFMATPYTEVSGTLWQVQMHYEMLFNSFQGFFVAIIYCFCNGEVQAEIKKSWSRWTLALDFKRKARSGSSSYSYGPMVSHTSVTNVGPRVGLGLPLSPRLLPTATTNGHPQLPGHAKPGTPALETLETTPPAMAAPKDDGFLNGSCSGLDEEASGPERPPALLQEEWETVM
UniProt P28222: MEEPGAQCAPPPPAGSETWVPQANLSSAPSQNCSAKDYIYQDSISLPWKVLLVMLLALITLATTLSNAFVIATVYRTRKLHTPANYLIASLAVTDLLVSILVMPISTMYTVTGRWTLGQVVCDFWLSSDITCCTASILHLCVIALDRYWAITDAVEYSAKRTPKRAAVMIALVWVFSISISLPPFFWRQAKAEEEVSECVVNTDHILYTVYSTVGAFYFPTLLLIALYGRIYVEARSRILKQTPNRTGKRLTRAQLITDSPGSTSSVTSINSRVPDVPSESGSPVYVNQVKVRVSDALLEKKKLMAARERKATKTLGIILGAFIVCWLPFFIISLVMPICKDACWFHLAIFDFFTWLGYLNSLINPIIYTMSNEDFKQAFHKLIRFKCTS
UniProt P10523: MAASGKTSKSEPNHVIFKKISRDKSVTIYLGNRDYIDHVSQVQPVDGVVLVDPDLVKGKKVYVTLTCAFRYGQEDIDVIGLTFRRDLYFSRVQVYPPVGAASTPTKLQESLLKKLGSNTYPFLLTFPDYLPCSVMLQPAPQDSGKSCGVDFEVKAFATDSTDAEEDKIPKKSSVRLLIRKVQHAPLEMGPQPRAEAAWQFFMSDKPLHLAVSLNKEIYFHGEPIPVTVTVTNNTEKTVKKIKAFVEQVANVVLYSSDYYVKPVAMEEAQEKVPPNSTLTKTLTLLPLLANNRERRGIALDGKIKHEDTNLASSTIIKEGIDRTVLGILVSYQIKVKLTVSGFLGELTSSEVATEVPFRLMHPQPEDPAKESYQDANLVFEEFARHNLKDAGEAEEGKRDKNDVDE
UniProt P21146: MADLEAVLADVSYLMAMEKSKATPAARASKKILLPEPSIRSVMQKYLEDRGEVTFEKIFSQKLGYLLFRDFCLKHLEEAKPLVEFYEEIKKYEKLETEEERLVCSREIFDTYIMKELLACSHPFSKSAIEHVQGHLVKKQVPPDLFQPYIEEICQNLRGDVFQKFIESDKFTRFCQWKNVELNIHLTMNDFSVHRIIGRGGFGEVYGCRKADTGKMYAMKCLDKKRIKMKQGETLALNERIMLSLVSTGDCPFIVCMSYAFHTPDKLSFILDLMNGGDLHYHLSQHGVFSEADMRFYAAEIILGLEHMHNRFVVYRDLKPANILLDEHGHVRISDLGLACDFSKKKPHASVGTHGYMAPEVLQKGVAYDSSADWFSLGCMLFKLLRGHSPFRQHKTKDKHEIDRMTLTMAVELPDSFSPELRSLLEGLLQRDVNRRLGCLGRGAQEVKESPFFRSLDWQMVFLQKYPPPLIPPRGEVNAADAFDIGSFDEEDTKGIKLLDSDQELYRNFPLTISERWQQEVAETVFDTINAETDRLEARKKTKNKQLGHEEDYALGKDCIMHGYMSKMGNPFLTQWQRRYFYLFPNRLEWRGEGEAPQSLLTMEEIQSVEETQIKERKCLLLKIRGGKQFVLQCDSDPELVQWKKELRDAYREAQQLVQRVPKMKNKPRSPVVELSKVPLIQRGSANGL
UniProt P34947: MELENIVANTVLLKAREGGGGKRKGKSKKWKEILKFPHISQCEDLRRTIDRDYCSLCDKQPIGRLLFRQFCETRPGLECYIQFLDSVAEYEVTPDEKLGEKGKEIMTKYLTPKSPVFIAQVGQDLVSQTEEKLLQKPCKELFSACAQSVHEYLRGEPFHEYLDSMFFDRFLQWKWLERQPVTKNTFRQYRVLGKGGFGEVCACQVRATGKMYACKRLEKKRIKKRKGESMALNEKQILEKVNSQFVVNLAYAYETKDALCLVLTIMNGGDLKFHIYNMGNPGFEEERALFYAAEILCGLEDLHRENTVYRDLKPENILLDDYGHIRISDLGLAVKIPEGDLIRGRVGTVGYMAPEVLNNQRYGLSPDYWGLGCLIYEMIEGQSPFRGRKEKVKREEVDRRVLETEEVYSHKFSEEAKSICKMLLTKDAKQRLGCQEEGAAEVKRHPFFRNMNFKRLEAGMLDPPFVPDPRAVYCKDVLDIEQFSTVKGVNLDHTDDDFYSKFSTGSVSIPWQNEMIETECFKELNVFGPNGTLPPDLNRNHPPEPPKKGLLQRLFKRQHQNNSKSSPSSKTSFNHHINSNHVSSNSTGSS

Experiment [3] concerns the target H8-MBP-Rho (4M), purified (human) (UniProt P08100). The experiment in a line: AlphaScreen or HTRF; His8-tagged Rho on nickel-chelated acceptor beads, biotinylated GRK on streptavidin donor beads; 40 nM of each protein; 50 mM MOPS-Na pH 7.4, 50 mM NaF, 50 mM CHAPS, 0.01% DDM, 0.1 mg/ml BSA; also with paroxetine; both purified.
The target in experiment [4] is serotonin receptor 5-HT1B fused to a TEV cleavage site and tTA (human) (UniProt P28222). Briefly: Tango assay (TEV protease proximity reporter); HTL cells co-transfected with receptor-TEV cleavage site-tTA and GRK-TEV protease fusions; luciferase reporter; vehicle or ligand overnight (ATR 10 μM for rhodopsin; paroxetine; DHE 0.1 μM, GR 127935 1 μM; SX 1 μM, ICI 118 551 1 μM); DNA amounts adjusted for similar expression.

Experiment [5] addresses β2-adrenergic receptor fused to a TEV cleavage site and tTA (human) (UniProt P07550). The description is as above.

These are yes or no findings as the source states them, for the method shown. For part of these data: Binding seen in cells or lysates may run through a third protein. Some results given as binding are weak or reduced against the parent protein; the word gives no strength.

These results are taken from PMC5518878.

As for “Arrestin-biotin-MBP (human wild-type visual arrestin), purified (from UniProt P10523 1-405)”, in experiment [1], the binding entry is recorded as “binds weakly”.

“bovine GRK2 fused to the N-terminus of TEV protease (from UniProt P21146 1-689) (enzyme)”: the binding result in experiment [2] is given as “binds”. As for “GRK5, purified, of the AlphaScreen assay (from UniProt P34947 1-590) (enzyme)”, the binding result in experiment [3] is given as “binds”. For the substance “GRK2 (1-184)-TEV protease fusion (from UniProt P21146 1-184) (domain or fragment)”, the binding result in experiment [4], in experiment [5] and in experiment [2] was “binds” throughout. With “GRK2 (28-184)-TEV protease fusion (from UniProt P21146 28-184) (domain or fragment)”, the binding entry in experiment [4], in experiment [5] and in experiment [2] was “binds” throughout.
